Results from the supplement of paper PMC12067093, “Discovery and optimisation of a covalent ligand for TRIM25 and its application to targeted protein ubiquitination” (Chemical Science, 2025).
The other results are listed elsewhere or left out.

Chains of the proteins cited; added tags and fusions are not shown. Lines headed by an entry give the natural chain unless they say otherwise; changes in a name come on top.
UniProt P06213, whole entry, looked up: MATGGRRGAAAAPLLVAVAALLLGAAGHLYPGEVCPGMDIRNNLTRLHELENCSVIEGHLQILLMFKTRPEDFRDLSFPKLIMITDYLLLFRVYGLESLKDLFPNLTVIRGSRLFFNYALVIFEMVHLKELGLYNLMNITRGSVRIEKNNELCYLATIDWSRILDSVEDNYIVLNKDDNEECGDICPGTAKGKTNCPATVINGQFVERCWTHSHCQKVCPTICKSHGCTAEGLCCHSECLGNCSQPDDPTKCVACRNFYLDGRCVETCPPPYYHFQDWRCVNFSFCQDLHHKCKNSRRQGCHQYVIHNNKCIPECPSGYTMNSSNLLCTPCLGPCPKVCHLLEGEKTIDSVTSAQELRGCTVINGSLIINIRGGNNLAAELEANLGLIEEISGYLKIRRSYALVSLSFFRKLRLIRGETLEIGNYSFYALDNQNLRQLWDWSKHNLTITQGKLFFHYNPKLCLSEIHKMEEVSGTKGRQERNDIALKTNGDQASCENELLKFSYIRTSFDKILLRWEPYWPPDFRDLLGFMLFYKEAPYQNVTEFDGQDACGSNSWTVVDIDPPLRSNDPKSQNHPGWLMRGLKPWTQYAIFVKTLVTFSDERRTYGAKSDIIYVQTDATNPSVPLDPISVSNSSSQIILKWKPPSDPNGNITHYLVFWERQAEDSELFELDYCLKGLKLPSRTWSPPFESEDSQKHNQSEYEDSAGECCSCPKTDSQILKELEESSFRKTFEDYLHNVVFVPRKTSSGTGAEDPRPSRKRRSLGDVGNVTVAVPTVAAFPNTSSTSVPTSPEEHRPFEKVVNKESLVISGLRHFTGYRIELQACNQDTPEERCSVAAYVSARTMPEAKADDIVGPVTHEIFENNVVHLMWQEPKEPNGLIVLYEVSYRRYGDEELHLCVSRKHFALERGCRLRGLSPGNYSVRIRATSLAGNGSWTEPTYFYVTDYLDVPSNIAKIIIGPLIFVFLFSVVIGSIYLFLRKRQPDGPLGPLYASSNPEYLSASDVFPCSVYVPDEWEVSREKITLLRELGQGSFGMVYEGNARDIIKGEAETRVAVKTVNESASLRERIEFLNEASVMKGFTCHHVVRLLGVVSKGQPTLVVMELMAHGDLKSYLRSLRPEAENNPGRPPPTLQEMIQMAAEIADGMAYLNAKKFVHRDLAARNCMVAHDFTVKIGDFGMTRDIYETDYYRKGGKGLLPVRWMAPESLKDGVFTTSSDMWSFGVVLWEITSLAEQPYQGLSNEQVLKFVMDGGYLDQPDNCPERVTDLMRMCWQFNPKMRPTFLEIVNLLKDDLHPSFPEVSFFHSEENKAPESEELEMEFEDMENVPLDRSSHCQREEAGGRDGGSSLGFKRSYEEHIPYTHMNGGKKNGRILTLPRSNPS
UniProt Q8TEX9: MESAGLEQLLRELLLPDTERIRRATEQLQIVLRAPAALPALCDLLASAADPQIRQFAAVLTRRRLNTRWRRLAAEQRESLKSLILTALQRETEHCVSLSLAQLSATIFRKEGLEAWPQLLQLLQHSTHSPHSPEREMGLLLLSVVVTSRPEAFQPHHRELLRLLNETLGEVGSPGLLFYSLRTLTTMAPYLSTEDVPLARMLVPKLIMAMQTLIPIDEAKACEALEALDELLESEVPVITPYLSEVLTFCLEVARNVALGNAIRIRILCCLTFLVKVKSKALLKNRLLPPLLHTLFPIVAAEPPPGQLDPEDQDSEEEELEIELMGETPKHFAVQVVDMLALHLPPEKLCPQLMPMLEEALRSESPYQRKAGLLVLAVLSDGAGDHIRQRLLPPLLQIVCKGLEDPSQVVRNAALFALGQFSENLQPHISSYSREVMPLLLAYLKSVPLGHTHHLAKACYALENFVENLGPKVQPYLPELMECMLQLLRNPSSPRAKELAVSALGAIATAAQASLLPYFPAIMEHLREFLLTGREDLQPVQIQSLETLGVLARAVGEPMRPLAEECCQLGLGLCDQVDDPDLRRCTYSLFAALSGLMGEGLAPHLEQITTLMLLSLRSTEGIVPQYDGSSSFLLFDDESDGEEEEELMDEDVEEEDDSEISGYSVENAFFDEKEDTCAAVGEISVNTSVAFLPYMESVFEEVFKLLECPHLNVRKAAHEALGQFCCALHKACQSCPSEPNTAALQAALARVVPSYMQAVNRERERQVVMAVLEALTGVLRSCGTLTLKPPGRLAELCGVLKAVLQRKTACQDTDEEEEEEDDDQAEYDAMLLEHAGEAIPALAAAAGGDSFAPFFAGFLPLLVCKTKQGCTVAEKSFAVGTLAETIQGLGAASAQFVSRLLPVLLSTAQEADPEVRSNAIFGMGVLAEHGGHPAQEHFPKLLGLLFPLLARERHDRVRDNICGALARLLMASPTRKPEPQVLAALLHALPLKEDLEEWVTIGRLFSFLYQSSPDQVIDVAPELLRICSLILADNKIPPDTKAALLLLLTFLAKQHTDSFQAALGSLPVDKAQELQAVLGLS
UniProt Q86VI3: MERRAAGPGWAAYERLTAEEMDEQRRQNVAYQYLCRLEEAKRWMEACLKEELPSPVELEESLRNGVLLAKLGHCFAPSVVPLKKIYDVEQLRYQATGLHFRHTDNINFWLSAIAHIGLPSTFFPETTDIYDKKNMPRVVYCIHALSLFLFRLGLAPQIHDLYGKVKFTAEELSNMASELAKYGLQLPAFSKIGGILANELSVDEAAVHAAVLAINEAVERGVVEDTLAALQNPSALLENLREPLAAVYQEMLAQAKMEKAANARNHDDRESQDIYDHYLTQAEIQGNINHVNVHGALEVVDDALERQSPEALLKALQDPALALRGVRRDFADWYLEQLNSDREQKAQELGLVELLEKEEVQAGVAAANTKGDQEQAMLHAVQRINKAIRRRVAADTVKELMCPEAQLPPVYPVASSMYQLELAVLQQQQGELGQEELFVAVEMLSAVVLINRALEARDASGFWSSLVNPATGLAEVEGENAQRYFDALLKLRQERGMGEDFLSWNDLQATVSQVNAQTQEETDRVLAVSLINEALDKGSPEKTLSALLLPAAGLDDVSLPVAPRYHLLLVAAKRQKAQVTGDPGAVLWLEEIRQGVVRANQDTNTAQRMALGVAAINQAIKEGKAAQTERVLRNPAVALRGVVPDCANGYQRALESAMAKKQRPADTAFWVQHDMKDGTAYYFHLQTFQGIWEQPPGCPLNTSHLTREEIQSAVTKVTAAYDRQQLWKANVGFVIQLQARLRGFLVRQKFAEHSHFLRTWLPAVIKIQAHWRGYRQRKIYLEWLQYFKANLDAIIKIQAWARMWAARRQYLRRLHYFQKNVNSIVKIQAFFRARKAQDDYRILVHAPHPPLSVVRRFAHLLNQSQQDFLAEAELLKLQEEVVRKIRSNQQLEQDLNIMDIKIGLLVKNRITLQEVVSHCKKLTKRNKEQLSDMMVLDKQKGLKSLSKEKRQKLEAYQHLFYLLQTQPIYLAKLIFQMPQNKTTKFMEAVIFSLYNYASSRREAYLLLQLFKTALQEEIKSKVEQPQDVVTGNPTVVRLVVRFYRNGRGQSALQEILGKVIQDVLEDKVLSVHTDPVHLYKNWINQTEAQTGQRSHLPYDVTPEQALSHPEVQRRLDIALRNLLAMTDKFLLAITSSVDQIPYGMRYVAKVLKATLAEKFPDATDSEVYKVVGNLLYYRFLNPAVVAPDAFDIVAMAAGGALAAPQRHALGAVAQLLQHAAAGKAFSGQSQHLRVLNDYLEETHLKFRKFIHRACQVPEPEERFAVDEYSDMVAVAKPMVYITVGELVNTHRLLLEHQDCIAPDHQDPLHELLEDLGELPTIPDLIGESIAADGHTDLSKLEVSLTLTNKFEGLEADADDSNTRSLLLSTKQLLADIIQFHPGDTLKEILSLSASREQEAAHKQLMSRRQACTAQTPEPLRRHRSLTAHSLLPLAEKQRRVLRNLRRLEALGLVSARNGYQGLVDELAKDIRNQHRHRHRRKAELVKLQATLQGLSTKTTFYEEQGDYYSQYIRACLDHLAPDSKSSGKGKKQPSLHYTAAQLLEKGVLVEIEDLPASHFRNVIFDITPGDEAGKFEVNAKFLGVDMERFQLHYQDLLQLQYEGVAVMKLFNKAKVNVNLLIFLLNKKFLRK
UniProt Q9NVM9, whole entry, looked up: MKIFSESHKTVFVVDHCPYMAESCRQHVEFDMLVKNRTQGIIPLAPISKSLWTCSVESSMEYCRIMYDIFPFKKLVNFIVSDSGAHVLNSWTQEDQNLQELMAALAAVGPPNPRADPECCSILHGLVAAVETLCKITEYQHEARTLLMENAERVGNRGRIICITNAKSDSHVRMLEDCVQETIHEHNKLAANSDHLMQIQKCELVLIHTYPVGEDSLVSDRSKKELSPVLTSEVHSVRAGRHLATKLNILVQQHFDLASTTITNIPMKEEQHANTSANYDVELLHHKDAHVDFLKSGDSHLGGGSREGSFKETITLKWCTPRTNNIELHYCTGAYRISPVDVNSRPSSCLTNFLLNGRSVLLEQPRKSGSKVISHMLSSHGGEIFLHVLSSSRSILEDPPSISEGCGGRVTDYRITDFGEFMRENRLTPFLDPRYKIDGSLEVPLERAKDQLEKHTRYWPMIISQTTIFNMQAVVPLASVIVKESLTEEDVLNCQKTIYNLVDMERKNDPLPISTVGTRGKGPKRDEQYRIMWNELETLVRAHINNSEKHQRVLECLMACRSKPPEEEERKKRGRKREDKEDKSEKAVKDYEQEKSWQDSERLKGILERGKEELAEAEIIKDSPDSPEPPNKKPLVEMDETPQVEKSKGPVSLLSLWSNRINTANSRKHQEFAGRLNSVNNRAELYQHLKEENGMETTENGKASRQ
UniProt Q8IU81: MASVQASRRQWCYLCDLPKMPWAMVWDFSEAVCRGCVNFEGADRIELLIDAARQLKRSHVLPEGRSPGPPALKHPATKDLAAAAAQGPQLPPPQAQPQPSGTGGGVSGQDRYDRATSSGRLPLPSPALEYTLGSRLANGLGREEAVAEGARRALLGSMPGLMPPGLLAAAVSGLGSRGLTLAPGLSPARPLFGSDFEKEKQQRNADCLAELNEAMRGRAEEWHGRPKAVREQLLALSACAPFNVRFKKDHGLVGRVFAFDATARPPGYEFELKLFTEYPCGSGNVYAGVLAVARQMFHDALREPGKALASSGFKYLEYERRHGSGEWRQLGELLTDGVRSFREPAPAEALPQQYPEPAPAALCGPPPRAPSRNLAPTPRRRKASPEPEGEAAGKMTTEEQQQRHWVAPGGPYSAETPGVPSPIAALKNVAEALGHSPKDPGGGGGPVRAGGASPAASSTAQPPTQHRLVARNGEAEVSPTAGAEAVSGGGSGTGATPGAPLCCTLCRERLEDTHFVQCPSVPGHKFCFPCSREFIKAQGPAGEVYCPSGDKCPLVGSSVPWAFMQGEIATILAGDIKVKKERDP
UniProt O00410: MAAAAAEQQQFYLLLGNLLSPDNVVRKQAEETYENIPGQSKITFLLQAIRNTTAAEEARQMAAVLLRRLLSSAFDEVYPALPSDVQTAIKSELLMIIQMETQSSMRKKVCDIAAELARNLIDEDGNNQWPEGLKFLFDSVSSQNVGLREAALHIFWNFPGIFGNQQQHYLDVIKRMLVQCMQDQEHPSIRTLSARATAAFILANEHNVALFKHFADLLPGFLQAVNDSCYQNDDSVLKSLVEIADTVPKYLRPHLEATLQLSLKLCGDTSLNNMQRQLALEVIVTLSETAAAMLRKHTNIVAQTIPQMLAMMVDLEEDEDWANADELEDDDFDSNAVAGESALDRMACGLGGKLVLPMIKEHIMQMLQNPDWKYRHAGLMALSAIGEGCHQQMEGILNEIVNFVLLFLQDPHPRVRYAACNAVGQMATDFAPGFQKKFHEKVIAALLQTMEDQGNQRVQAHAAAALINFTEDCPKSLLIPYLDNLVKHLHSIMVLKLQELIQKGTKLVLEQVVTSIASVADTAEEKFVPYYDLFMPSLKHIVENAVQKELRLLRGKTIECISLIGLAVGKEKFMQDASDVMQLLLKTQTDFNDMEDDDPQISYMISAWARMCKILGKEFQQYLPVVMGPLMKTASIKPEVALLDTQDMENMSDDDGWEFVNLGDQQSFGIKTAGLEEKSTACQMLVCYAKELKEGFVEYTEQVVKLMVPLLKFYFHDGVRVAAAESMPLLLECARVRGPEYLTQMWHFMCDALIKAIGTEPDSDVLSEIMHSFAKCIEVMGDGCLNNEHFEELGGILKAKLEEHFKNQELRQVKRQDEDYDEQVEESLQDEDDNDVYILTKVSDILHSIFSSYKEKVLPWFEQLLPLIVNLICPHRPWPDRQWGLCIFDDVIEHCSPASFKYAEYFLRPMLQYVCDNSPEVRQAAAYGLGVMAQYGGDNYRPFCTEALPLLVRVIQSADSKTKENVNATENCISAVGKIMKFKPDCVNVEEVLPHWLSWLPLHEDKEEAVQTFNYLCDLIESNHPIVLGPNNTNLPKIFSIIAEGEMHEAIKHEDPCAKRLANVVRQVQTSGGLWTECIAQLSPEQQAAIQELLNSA

Compound: Cc1cc(ccc1-c1ccccc1)C(=O)N1CCCN(CC1)C(=O)CCl [compound 10]
Experiment: probe-labelled cysteine peptide fold change vs DMSO (competition) (log2 fold change); higher = less target engagement (more negative = stronger competition)
Conditions: THP-1, incubation time: 4 h
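Further: competitive profiling in live THP-1 cells: cysteine peptides tagged with an iodoacetamide desthiobiotin (IA-DTB) probe, intensity after compound treatment relative to DMSO-treated cells.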

Target | probe-labelled cysteine peptide fold change (10 µM) | probe-labelled cysteine peptide fold change (50 µM)
IRAK3_Q9Y616_5_AGNCGAR (UniProt Q9Y616) | 0.158 | 0.152
INSR_P06213_825_IELQACNQDTPEER (UniProt P06213) | -0.175 | -0.0277
IPO4_Q8TEX9_870_QGCTVAEK (UniProt Q8TEX9) | 0.0277 | -0.207
IQGAP3_Q86VI3_74_LGHCFAPSVVPLKK (UniProt Q86VI3) | 0.101 | -0.283
INTS2_Q9H0H0_722_LLATNYPHLCIVDDWICEEEITGTDALLRR (UniProt Q9H0H0) | -0.0727 | -0.174
IREB2_P48200_178_GSCDSGELGR (UniProt P48200) | -0.299 | -0.721
IPO4_Q8TEX9_962_VRDNICGALAR (UniProt Q8TEX9) | 0.198 | -0.409
ITGB2_P05107_536_LIYGQYCECDTINCER (UniProt P05107) | -0.0384 | -0.138
INTS13_Q9NVM9_560_VLECLMACR (UniProt Q9NVM9) | 0.0497 | -0.385
INSR_P06213_153_NNELCYLATIDWSR (UniProt P06213) | 0.0759 | 0.24
IPO4_Q8TEX9_725+726_AAHEALGQFCCALHK (UniProt Q8TEX9) | -0.205 | -0.838
IRF2BP1_Q8IU81_363_EPAPAEALPQQYPEPAPAALCGPPPR (UniProt Q8IU81) | -0.287 | 0.257
IPO5_O00410_266_LCGDTSLNNMQR (UniProt O00410) | -0.215 | 0.193
INTS13_Q9NVM9_349_ISPVDVNSRPSSCLTNFLLNGR (UniProt Q9NVM9) | -0.00496 | -0.66

Another view of some results above.
Target	probe-labelled cysteine peptide fold change (10 µM)	probe-labelled cysteine peptide fold change (50 µM)
INSR_P06213_825_IELQACNQDTPEER (UniProt P06213)	-0.175	-0.0277
INTS13_Q9NVM9_349_ISPVDVNSRPSSCLTNFLLNGR (UniProt Q9NVM9)	-0.00496	-0.66
